According to article PMC6884526:
These are yes or no findings as the source states them, for the method shown. Binding seen in cells or lysates may run through a third protein. Some binding calls cover weakened binding; strength is not graded here. For part of these data: Tags and fused reporters may be left off the sequences shown.

Chains of the proteins cited; added tags and fusions are not shown. Lines headed by an entry give the natural chain unless they say otherwise; changes in a name come on top. Residues count along the entry.
UniProt Q63604, residues 32-821: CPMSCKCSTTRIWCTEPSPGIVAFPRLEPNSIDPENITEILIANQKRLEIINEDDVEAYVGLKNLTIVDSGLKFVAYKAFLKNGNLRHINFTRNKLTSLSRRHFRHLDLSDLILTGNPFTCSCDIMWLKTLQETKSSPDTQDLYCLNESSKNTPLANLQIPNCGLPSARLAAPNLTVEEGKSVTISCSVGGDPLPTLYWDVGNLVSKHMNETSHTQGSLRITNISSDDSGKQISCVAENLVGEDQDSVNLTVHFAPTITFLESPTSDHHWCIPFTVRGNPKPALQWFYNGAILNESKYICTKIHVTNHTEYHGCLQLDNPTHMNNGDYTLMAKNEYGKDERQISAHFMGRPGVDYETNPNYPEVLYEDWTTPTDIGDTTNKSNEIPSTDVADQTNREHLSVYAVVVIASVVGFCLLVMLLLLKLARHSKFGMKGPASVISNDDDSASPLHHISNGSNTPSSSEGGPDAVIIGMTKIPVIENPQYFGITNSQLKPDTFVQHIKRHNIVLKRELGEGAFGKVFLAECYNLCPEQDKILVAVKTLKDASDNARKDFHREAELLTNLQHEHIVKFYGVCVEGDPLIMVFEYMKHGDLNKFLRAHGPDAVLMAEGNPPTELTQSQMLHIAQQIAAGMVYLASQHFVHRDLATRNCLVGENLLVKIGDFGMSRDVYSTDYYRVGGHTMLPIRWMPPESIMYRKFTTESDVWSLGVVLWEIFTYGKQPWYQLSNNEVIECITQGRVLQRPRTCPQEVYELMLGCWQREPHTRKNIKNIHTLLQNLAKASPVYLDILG
UniProt Q5JCS6: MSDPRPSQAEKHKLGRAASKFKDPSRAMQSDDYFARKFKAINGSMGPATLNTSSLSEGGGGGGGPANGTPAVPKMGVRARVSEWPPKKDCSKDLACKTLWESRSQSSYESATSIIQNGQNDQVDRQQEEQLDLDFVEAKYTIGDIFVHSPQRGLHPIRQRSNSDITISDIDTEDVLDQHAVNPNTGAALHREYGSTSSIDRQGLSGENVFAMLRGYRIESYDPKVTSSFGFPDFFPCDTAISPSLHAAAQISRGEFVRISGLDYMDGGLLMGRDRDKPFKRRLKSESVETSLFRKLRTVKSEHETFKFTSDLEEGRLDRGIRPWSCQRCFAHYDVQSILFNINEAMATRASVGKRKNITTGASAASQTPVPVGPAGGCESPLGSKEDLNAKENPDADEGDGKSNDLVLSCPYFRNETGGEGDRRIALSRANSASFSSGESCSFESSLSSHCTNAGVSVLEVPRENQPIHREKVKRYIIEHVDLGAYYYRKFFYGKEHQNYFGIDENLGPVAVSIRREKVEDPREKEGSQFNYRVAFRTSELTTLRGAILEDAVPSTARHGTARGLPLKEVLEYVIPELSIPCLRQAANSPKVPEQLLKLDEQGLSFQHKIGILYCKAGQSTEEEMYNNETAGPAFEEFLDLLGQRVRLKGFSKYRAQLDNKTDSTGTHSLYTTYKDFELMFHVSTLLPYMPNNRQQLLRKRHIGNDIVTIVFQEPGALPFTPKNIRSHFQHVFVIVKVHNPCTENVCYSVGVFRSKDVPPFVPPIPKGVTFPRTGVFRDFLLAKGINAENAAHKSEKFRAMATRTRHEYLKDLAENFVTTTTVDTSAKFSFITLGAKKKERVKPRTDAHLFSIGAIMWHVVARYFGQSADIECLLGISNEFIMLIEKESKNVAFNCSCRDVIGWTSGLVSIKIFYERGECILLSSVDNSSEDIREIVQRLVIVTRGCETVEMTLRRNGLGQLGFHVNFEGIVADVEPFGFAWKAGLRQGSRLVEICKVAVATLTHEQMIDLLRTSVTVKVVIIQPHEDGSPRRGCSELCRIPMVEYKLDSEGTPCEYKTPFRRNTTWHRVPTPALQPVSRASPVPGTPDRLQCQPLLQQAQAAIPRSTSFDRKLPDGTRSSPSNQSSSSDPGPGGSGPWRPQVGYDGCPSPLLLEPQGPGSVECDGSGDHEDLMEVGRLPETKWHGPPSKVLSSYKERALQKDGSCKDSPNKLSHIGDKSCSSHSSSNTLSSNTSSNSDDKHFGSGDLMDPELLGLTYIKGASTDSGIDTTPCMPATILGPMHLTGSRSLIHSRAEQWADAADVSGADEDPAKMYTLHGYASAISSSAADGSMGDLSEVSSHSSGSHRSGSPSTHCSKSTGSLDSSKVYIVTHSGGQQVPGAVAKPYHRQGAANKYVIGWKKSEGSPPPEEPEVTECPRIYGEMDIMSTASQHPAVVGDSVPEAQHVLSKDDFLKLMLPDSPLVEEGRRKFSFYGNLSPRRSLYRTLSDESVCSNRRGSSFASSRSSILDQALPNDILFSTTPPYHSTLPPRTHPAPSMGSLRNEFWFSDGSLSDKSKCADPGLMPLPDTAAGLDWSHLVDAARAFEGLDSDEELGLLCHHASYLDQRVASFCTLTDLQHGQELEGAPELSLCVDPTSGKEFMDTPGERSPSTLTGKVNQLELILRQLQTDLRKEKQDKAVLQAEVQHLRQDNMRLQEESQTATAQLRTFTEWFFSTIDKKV

Tests used:
[1] = target: TrkB (endogenous, rat hippocampus) (rat (endogenous in hippocampus)) (UniProt Q63604); assay: co-IP; endogenous proteins from rat hippocampal extract (150 mM NaCl, 50 mM TRIS, 0.5% DOC, 1% Triton X-100); goat anti-TrkB or rabbit anti-SIPA1L2 overnight at 4 °C, Protein G Dynabeads; IgG controls
GFP-Snapin = target: T1, GFP-Snapin (UniProt P60192); assay: co-IP; heterologous, HEK293T lysate in RIPA buffer (50 mM Tris-HCl pH 7.4, 150 mM NaCl, 1% Triton X-100, 0.5% sodium deoxycholate, 0.1% SDS); anti-GFP/myc magnetic beads (MultiMACS)
T1 sequence: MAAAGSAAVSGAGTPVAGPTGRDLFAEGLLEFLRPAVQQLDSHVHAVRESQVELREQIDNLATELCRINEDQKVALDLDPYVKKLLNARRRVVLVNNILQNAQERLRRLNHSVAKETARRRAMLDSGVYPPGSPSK

With “SIPA1L2 (endogenous, rat hippocampus) (from UniProt Q5JCS6 1-1722)” the binding [1] was “binds”.
“SIPA1L2-F638A-L641A-mCherry (from UniProt Q5JCS6 1-1722)” was tested, and the binding (GFP-Snapin) was “binds”.
In the case of “fl-SIPA1L2-mCherry (from UniProt Q5JCS6 1-1722)”, the binding (GFP-Snapin) is reported as “binds”.
